Data on three substances can be found in paper PMC11300456.

Chains of the proteins cited; added tags and fusions are not shown. Lines headed by an entry give the natural chain unless they say otherwise; changes in a name come on top. A line that says so, or that is headed by a name, gives the form on record, which may keep a tag or linker.
UniProt P04198: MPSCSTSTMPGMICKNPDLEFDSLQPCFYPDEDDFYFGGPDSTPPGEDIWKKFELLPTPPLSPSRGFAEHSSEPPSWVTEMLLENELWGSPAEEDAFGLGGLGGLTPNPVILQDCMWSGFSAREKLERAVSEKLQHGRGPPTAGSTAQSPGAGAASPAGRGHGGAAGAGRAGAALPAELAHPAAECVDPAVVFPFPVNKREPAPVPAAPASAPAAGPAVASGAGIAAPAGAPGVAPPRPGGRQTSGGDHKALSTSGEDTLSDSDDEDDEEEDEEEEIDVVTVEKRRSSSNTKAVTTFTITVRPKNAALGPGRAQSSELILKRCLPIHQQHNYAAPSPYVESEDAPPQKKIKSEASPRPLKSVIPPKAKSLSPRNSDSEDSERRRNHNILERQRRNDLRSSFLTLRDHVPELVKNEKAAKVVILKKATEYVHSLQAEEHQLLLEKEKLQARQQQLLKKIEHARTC
HA-N-Myc-ΔLILKR (P04198, form named): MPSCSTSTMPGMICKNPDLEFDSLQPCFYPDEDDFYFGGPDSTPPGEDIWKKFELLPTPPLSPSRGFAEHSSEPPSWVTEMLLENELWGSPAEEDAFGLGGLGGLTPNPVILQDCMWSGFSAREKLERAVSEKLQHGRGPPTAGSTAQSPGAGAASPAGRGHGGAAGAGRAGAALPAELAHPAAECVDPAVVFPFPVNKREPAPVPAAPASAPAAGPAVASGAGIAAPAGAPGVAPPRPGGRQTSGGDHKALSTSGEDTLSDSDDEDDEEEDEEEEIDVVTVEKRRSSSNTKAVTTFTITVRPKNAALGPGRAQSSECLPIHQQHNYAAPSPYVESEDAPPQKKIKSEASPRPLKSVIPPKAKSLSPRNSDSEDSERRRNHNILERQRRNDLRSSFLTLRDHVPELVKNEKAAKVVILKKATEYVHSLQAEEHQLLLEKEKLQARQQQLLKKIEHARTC
HA-N-Myc Δ314-342 (P04198, form named): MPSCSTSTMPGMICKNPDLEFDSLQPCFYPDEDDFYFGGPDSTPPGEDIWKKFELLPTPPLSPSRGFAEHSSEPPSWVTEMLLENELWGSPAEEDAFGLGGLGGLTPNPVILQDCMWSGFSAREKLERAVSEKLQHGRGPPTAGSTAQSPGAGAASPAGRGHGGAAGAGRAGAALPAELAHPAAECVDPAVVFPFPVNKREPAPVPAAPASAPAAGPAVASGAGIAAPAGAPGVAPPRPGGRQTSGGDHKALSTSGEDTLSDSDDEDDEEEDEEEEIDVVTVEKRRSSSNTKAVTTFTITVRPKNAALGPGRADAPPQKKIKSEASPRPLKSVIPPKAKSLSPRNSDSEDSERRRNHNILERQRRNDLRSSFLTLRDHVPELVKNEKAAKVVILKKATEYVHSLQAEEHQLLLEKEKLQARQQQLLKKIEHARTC
UniProt Q9UNE7: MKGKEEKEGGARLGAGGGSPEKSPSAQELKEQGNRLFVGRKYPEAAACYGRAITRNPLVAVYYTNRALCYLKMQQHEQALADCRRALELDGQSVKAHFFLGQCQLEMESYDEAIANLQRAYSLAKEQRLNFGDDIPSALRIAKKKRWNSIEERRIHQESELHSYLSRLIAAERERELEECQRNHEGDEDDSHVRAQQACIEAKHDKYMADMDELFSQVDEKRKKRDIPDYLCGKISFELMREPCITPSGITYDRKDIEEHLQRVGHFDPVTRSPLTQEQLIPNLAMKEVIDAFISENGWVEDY

Results are given in words; binding and its absence hold for the method and conditions named. In cells and extracts the contact can be indirect. Some results given as binding are weak or reduced against the parent protein; the word gives no strength.

In one assay the target is HA-N-Myc-ΔLILKR (UniProt P04198). The experiment in a line: co-IP; HEK293 co-transfected with HA-N-Myc constructs and Flag-STUB1 constructs, with or without His-HSP70; lysate precipitated with anti-HA antibody; western blot. In general terms: In western blotting, separated proteins are transferred to a membrane and probed.
The next assay has as its target HA-N-Myc Δ314-342 (UniProt P04198). The description is as above.
Assay [1] has as its target HA-tagged full-length N-Myc (amino acids 1–464) (UniProt P04198). The description is as above.
Assay [2] has as its target N-Myc, endogenous (human (endogenous in CWR22Rv1 and UCDCaP-CR)) (UniProt P04198). The experiment in a line: co-IP; endogenous proteins in CWR22Rv1 and UCDCaP-CR lysates; in Fig. 5f CWR22Rv1 treated with JG231 (5 µM) overnight, then MG132, precipitated with N-Myc antibody.

Regarding “Flag-STUB1 (from UniProt Q9UNE7 1-303) (enzyme)”, the values for the binding entry (with HA-N-Myc-ΔLILKR; with HA-N-Myc Δ314-342; in assay [1]) were “binds weakly”, “binds weakly” and “binds”, respectively.

As to “Flag-STUB1 K30A (from UniProt Q9UNE7 1-303) (enzyme)”, in assay [1], the binding result is listed as “binds”.

“STUB1, endogenous (from UniProt Q9UNE7 1-303) (enzyme)”: in assay [2], the binding result is listed as “binds”.
